# Cell number after 72 h of treatment

Values as published with doi:10.1371/journal.pone.0140310, rounded.

Compounds and concentrations:
PLX4720, 80 nM: CCCS(=O)(=O)Nc1ccc(F)c(C(=O)c2c[nH]c3ncc(Cl)cc23)c1F
lenalidomide, 1000 nM: Nc1cccc2c1CN(C1CCC(=O)NC1=O)C2=O (stereo not drawn)
RKI-983, 400 nM: C[C@@H](N)c1ccc(C(=O)Nc2ccnc3[nH]ccc23)cc1
pazopanib, 400 nM: Cc1ccc(Nc2nccc(N(C)c3ccc4c(C)n(C)nc4c3)n2)cc1S(N)(=O)=O
docetaxel, 0.1 nM: CC(=O)O[C@@]12CO[C@@H]1C[C@H](O)[C@@]1(C)C(=O)[C@H](O)C3=C(C)[C@@H](OC(=O)[C@H](O)[C@@H](NC(=O)OC(C)(C)C)c4ccccc4)C[C@@](O)([C@@H](OC(=O)c4ccccc4)[C@H]21)C3(C)C
perifosine, 400 nM: CCCCCCCCCCCCCCCCCCOP(=O)([O-])OC1CC[N+](C)(C)CC1
sorafenib, 400 nM: CNC(=O)c1cc(Oc2ccc(NC(=O)Nc3ccc(Cl)c(C(F)(F)F)c3)cc2)ccn1
bexarotene, 2000 nM: C=C(c1ccc(C(=O)O)cc1)c1cc2c(cc1C)C(C)(C)CCC2(C)C
stibogluconate, 2000 nM: O=C(O)[C@@H]1[O][Sb](=[O])([O][Sb]2(=[O])[O][C@H]([C@H](O)CO)[C@H](O)[C@H](C(=O)O)[O]2)[O][C@H]([C@H](O)CO)[C@@H]1O (stereo partly drawn)
VX-702, 400 nM: NC(=O)c1ccc(N(C(N)=O)c2c(F)cccc2F)nc1-c1ccc(F)cc1F

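The test systems are human melanoma cell lines, treated with two drugs together for 72 h and then stained and imaged. The read-out is cell count (nuclei) in % of the DMSO control; lower values mean stronger growth inhibition or killing. Concentrations were fixed for each drug; these are the lower of two levels, a fifth of the higher. No replicate spread is given; individual values may be noisy.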
Only some of the drugs and lines screened are listed, without regard to their results.

Combination,IPC-298,LOX IMVI,A2058,C32,COLO 792,COLO 800,IST-MEL1,MEL-HO
stibogluconate + bexarotene,95.5,59.3,103,93.7,88.9,98.7,90.7,93.3
bexarotene + sorafenib,100,115,107,101,107,77.2,94.2,99.4
lenalidomide + RKI-983,99.7,42.1,88.6,82.0,90.7,81.2,117,86.5
VX-702 + pazopanib,77.0,112,108,116,91.5,87.2,98.4,104
pazopanib + RKI-983,87.8,70.9,77.7,81.8,104,201,103,83.8
perifosine + sorafenib,88.8,82.8,91.9,91.6,101,98.2,103,100
docetaxel + RKI-983,64.6,64.5,12.6,81.2,42.5,30.8,64.6,56.2
docetaxel + VX-702,75.8,71.2,16.3,84.3,50.4,36.8,64.8,72.5
bexarotene + VX-702,102,123,114,118,103,90.1,93.8,89.3
sorafenib + PLX4720,84.6,117,103,80.0,114,86.0,102,99.8
lenalidomide + PLX4720,93.8,192,103,99.3,115,104,106,97.0
stibogluconate + PLX4720,87.4,88.3,110,77.0,95.1,82.6,104,92.5
VX-702 + lenalidomide,97.8,58.3,92.7,89.8,98.4,113,96.8,91.0
perifosine + docetaxel,71.6,101,29.2,97.5,45.8,44.3,75.7,74.9
pazopanib + docetaxel,59.6,66.4,13.9,99.0,43.9,39.8,78.6,70.0
perifosine + stibogluconate,101,76.3,80.3,85.8,92.9,62.7,98.6,101
stibogluconate + pazopanib,75.4,68.4,89.5,83.9,110,93.2,97.2,89.3
RKI-983 + sorafenib,86.6,101,84.9,85.1,106,90.8,108,83.7
PLX4720 + pazopanib,78.7,103,98.8,84.9,95.5,87.7,105,109
perifosine + pazopanib,82.6,65.7,90.2,116,91.8,56.1,95.5,101
lenalidomide + pazopanib,81.0,80.8,97.4,103,106,179,110,97.5
perifosine + RKI-983,102,69.5,101,90.2,87.1,139,102,87.4
sorafenib + lenalidomide,98.4,86.6,86.8,90.6,118,115,95.6,99.6
stibogluconate + RKI-983,107,77.3,78.4,76.0,97.5,143,97.0,84.4
bexarotene + docetaxel,69.1,45.0,8.0,93.4,38.2,31.0,60.9,62.2
stibogluconate + VX-702,96.5,83.8,95.9,112,91.9,84.2,93.5,95.6
sorafenib + pazopanib,74.2,110,82.3,98.5,100,83.9,88.5,95.5
bexarotene + RKI-983,92.2,66.0,82.5,74.7,87.3,131,97.4,66.0
docetaxel + stibogluconate,63.4,53.2,13.5,85.7,34.0,40.9,66.9,65.3
pazopanib + bexarotene,81.0,147,98.4,153,104,81.9,102,88.1
RKI-983 + PLX4720,100,95.3,89.6,74.6,87.5,151,97.2,76.3
PLX4720 + bexarotene,95.7,181,100,99.6,88.2,142,93.2,104
perifosine + lenalidomide,91.6,73.0,93.2,92.8,101,74.0,96.3,104
PLX4720 + perifosine,107,153,104,93.6,90.2,96.7,98.7,103
docetaxel + PLX4720,55.9,35.9,14.2,61.7,29.7,47.2,69.9,54.7
sorafenib + VX-702,90.3,149,88.0,97.4,99.0,123,97.9,90.4
bexarotene + perifosine,102,119,87.9,90.7,113,115,106,85.8

Some entries from above, unchanged:

Combination	IPC-298	LOX IMVI	A2058	C32	COLO 792	COLO 800	IST-MEL1	MEL-HO
VX-702 + pazopanib	77.0	112	108	116	91.5	87.2	98.4	104
lenalidomide + pazopanib	81.0	80.8	97.4	103	106	179	110	97.5
perifosine + docetaxel	71.6	101	29.2	97.5	45.8	44.3	75.7	74.9
perifosine + stibogluconate	101	76.3	80.3	85.8	92.9	62.7	98.6	101